Measured values taken from the supplement of paper PMC11006884.
This is a selection; strong and weak results do not stand in their true shares.

The chains behind the UniProt entries cited, without tags or fusion partners. Where a name states a change or a piece, a line headed by the entry shows the natural chain unless it says otherwise.
UniProt Q8N201, whole entry, looked up: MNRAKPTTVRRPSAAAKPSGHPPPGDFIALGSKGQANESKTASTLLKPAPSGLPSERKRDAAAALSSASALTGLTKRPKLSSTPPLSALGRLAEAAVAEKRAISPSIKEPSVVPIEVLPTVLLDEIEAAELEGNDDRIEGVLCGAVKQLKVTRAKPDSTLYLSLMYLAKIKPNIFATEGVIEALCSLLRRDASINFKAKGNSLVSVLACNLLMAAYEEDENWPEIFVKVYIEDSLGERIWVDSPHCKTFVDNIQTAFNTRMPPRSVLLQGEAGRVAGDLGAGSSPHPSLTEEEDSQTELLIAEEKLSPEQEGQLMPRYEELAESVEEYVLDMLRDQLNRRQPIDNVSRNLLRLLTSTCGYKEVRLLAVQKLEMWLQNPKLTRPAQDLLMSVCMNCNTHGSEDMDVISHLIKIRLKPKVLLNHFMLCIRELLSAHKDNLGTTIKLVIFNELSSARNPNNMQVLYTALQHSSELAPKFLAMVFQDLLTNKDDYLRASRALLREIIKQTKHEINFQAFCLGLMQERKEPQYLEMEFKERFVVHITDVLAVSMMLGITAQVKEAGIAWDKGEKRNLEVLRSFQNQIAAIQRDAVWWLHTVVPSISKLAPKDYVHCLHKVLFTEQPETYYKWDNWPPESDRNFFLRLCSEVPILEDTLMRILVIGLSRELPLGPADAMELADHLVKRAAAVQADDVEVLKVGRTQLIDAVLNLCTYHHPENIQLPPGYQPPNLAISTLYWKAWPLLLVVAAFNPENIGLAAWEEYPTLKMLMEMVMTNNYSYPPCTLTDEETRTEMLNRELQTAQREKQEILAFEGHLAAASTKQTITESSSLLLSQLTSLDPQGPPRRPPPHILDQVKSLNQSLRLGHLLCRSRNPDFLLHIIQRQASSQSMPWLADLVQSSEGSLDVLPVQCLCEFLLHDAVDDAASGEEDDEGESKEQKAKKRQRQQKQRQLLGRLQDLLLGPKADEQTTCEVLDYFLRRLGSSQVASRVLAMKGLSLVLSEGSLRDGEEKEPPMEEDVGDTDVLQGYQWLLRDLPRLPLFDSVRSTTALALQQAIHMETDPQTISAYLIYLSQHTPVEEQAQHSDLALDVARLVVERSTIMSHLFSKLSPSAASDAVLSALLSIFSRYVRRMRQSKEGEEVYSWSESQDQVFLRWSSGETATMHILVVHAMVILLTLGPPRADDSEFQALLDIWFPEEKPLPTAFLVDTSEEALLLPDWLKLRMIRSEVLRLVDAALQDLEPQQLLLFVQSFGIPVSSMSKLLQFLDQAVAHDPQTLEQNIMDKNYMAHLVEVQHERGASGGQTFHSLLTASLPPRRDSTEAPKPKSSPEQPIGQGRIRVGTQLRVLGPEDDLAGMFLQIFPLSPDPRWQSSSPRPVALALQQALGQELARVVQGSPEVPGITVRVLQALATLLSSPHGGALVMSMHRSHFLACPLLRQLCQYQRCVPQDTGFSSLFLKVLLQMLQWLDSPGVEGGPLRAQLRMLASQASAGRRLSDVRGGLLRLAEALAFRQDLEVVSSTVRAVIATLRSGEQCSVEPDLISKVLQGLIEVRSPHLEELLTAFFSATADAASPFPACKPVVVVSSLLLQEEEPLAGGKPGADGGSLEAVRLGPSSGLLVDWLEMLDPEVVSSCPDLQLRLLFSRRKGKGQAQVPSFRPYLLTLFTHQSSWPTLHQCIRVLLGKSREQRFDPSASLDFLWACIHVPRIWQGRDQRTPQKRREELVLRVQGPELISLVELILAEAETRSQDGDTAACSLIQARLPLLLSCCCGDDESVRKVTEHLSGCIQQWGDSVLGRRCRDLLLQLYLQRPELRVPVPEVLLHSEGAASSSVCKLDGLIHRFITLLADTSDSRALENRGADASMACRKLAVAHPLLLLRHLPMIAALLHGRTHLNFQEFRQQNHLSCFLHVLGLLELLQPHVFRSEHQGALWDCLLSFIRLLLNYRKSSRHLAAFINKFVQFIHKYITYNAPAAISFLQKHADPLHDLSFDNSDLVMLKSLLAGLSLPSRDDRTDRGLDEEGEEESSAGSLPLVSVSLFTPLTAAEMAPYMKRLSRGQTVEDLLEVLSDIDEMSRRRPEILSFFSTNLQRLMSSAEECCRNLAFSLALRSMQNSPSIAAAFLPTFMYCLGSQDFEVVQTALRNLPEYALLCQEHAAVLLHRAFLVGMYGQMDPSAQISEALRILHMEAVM
UniProt Q8N8U9: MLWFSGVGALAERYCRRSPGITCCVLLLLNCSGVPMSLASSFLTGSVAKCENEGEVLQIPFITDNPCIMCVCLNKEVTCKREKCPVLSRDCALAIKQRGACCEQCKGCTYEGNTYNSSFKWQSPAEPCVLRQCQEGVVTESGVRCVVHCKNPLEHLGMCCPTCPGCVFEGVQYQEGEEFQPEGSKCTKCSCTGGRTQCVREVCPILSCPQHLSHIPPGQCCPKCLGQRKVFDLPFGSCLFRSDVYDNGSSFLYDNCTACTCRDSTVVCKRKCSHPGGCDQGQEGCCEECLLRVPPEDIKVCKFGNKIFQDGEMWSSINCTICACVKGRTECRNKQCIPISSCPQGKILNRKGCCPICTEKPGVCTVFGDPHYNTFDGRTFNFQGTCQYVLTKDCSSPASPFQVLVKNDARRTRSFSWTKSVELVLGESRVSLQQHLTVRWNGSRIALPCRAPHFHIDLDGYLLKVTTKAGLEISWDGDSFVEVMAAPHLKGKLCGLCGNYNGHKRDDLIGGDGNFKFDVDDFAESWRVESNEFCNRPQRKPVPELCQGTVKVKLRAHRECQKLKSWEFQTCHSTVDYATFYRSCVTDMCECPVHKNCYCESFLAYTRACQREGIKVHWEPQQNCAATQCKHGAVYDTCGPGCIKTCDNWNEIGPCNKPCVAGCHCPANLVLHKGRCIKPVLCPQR
UniProt Q8N163, whole entry, looked up: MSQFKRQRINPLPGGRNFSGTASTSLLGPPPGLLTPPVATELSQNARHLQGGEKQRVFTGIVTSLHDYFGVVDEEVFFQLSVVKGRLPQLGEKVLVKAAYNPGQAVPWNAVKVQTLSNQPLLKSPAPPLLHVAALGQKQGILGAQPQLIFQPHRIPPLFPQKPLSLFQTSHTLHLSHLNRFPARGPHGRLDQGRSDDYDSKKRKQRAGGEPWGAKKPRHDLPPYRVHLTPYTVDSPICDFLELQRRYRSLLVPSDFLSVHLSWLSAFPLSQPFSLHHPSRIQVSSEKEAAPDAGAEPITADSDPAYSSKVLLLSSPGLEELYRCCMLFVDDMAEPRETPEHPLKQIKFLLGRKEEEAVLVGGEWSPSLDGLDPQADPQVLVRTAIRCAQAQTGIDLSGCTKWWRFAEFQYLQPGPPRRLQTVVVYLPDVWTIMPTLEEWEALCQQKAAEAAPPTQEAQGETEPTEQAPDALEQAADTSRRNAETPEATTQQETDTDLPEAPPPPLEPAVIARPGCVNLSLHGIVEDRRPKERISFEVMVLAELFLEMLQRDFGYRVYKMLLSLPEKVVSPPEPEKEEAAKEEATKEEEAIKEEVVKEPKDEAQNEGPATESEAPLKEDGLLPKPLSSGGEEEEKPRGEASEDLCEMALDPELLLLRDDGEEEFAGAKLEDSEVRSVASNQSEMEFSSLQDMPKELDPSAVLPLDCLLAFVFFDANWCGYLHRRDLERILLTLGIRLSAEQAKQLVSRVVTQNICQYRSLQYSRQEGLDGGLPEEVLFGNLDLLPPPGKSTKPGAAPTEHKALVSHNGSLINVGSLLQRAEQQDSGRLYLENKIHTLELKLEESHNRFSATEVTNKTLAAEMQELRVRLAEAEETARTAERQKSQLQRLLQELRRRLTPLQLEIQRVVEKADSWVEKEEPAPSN
UniProt Q8WUM9: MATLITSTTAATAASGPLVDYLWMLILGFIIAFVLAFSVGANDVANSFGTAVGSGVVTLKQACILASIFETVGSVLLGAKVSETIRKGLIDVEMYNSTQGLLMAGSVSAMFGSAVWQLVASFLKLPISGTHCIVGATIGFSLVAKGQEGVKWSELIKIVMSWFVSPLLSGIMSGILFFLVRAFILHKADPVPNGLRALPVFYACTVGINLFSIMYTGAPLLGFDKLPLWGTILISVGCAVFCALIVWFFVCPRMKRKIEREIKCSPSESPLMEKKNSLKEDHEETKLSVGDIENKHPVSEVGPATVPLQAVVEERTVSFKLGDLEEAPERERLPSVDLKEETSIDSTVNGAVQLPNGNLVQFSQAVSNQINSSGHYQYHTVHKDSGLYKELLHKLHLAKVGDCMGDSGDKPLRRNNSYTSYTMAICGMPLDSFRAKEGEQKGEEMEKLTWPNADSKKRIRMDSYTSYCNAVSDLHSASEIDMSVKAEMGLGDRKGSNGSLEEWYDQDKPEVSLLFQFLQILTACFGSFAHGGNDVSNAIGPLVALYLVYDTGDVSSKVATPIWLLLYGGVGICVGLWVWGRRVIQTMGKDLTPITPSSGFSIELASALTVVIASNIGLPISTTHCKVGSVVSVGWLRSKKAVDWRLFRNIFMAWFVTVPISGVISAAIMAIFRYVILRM
UniProt Q8IZ83: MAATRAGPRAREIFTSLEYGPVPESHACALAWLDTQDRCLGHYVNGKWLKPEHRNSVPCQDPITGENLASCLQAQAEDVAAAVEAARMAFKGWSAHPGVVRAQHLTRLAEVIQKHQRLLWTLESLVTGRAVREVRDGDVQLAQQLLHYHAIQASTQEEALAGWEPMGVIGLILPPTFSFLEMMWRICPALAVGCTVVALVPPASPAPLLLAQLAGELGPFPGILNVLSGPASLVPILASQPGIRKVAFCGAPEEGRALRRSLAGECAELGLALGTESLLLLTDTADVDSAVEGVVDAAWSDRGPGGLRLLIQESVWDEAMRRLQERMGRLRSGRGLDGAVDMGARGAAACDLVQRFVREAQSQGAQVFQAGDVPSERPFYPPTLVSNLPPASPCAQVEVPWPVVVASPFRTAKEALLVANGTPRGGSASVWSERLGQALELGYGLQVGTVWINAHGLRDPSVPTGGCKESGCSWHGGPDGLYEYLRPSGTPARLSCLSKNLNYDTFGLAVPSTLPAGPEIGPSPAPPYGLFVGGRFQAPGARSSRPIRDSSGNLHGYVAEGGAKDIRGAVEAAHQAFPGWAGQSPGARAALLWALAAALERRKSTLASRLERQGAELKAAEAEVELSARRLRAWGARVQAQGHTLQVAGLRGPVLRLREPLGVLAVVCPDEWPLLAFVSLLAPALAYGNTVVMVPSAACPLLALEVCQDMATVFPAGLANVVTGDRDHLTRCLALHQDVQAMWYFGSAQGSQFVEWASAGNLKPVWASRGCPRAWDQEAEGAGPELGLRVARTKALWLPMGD
UniProt Q8N5C6: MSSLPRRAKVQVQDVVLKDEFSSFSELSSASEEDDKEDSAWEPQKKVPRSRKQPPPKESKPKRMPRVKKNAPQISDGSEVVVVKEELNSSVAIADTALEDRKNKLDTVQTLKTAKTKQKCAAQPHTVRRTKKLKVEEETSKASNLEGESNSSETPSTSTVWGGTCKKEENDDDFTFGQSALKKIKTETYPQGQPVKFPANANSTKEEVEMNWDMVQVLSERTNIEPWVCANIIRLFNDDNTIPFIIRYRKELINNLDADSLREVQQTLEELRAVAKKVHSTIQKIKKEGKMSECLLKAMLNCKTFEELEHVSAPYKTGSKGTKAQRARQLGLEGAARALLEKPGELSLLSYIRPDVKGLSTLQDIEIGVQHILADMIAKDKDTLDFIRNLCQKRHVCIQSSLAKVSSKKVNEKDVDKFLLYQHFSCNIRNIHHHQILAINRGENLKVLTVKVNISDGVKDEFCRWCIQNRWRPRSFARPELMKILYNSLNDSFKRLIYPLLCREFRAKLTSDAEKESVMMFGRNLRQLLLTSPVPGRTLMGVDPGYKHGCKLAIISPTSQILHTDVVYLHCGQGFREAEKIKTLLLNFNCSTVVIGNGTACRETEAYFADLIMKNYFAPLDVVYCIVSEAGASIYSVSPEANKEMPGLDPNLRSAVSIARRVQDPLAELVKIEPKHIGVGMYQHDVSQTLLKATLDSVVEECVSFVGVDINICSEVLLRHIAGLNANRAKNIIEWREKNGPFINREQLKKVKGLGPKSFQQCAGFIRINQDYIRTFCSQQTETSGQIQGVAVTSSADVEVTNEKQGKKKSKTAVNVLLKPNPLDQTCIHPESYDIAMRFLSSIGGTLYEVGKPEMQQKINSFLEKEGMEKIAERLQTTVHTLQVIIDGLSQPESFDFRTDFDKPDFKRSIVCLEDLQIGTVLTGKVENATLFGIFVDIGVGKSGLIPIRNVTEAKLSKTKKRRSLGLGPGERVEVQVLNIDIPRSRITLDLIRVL
UniProt Q8NFH5: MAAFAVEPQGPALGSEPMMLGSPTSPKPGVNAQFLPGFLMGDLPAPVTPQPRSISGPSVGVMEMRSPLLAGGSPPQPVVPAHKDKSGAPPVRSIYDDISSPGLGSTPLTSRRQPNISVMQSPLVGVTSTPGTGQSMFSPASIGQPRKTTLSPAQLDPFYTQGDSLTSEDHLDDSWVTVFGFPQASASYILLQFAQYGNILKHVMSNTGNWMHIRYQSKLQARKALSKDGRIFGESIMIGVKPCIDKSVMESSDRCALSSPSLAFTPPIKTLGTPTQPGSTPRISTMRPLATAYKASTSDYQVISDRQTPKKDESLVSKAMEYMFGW

Compound: COC(=O)C#Cc1ccccc1 [methyl 3-phenylpropiolate]
Experiment: log2 ratio of iodoacetamide-alkyne labeling of the cysteine site, DMSO over compound (competition); higher = stronger covalent engagement of the cysteine by the compound, active = 1 or more
Details: 500 µM; treatment time 1 h; system: HEK293T cell lysate
Outline: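 Three replicates, each with duplicate channels, were prepared from HEK293T lysate (2 mg/mL) treated with vehicle or electrophile at 500 µM for 1 h at ambient temperature. Iodoacetamide alkyne was then applied for 1 h, and samples were clicked to sCIP-TMT reagents, pooled, trypsin-digested overnight at 37 °C, enriched on streptavidin, acid-eluted and analysed on Orbitrap Eclipse LC-MS/MS with FAIMS, with FragPipe quantification. The log2 competition ratio per cysteine is the mean control-channel divided by the mean compound-channel reporter intensity. Cysteines quantified in only one replicate were left out.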

log2 ratio of iodoacetamide-alkyne labeling, inactive:
INTS1 C1701 (UniProt Q8N201) -0.0332
UniProt Q8N0Z3_C818 0.582
UniProt Q8NFC6_C74 0.258
MPP5 C366 (UniProt Q8N3R9) 0.615
MICALL1 C597 (UniProt Q8N3F8) 0.47
PHF10 C134 (UniProt Q8WUB8) 0.0674
CXorf38 C300 (UniProt Q8TB03) 0.0233
UniProt Q8N8U9_C189 0.276
UniProt Q8NBJ5_C412 0.133
SYNE2 C5348 (UniProt Q8WXH0) 0.0109
UniProt Q8N163_C443 -0.254
SLC20A1 C426 (UniProt Q8WUM9) 0.487
RNF214 C149 (UniProt Q8ND24) 0.395
PLA2G15 C355 (UniProt Q8NCC3) 0.436
ALDH16A1 C472 (UniProt Q8IZ83) 0.154
DDHD1 C83 (UniProt Q8NEL9) 0.345
SRBD1 C120 (UniProt Q8N5C6) 0.471
ZNF280C C530 (UniProt Q8ND82) 0.334
NHLRC2 C716 (UniProt Q8NBF2) 0.101
SPATA5 C291 (UniProt Q8NB90) 0.294
NUP35 C255 (UniProt Q8NFH5) 0.901
NHLRC2 C161 (UniProt Q8NBF2) -0.365
PDCD6IP C524 (UniProt Q8WUM4) 0.154
PAF1 C36 (UniProt Q8N7H5) 0.367
IPO4 C95 (UniProt Q8TEX9) 0.618
UniProt Q8NC60_C393 0.2
WDR36 C866 (UniProt Q8NI36) 0.645
TBC1D15 C686 (UniProt Q8TC07) 0.635
INTS1 C969 (UniProt Q8N201) 0.652
OTUD6B C172 (UniProt Q8N6M0) 0.377
RNF10 C483 (UniProt Q8N5U6) 0.149
INTS1 C1534 (UniProt Q8N201) 0.294
UniProt Q8WZA9_C152 0.611
ZNF740 C9 (UniProt Q8NDX6) 0.549
UniProt Q8N0X7_C562 0.00694
PPP4R1 C261 (UniProt Q8TF05) 0.0823
RPTOR C86 (UniProt Q8N122) 0.596

As a short view, part of the list above.
log2 ratio of iodoacetamide-alkyne labeling, inactive:
MPP5 C366 (UniProt Q8N3R9) 0.615
MICALL1 C597 (UniProt Q8N3F8) 0.47
